From article PMC7694328, “Synthesis and Glycosidase Inhibition Properties of Calix[8]arene-Based Iminosugar Click Clusters” (Pharmaceuticals, 2020)
Certain results were filed several times, with different values. They are shown here; other results are not. An entry can have further records. Values given together differ, and nothing given here explains why; dose, time, organism, isomer or construct need not be as stated for each record.

Protein sequences, listed by entry. Tags and fused reporters are not part of them. Residues count along the entry.
UniProt C0HJB3, 1-562 limits assumed: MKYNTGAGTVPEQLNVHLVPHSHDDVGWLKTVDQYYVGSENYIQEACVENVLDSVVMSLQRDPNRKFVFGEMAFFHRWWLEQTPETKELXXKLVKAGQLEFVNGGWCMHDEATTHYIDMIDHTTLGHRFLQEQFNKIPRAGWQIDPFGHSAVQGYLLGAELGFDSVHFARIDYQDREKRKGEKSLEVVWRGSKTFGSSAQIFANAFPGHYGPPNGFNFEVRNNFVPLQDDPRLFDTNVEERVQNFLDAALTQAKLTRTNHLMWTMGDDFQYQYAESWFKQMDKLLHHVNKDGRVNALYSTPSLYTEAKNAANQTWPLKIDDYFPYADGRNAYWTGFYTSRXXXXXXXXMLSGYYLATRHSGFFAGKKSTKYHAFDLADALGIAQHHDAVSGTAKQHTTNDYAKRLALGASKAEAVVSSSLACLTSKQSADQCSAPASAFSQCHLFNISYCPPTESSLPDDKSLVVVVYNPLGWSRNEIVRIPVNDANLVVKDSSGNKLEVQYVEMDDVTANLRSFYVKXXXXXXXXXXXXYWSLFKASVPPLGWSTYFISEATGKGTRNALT
UniProt C0HJB3, 563-981 limits assumed: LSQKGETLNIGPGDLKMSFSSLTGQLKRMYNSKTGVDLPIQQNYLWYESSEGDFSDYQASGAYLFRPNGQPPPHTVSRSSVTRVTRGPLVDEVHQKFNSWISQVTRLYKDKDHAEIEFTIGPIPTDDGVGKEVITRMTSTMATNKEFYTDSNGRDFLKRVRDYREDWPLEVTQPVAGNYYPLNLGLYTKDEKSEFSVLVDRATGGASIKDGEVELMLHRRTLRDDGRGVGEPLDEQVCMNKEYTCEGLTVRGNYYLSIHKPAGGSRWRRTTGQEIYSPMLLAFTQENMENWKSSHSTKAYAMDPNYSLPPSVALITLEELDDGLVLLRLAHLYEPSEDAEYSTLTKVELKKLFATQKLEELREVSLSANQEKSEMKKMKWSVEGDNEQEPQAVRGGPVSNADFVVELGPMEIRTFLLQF

Target: Jack Bean α-mannosidase (JBα-man) (Canavalia ensiformis, UniProt C0HJB3)
Assay: Inhibition assay against Jack Bean α-mannosidase (hydrolysis of p-nitrophenyl-α-D-mannopyranoside)
Conditions: rp/number of DNJ units
Method: p-nitrophenyl-α-D-mannopyranoside and α-mannosidase (EC 3.2.1.24, from Jack Bean, Km = 2.0 mM pH 5.5) were purchased from Sigma Aldrich(St. Louis, MO, USA).
General procedure for Inhibition assay with basic quench: Inhibitory potencies were determined spectrophotometrically (Versamax 96-well plate spectrophotometer, Molecular Devices Corporation, Sunnyvale, CA, USA) measuring the residual hydrolytic activities of the mannosidase against p-nitrophenyl-α-D-mannopyranoside in the presence and absence of the inhibitor. All kinetics were performed at 25 °C and started by enzyme addition (0.015 U/mL) in a 100 µL assay medium (acetate buffer, 0.2 M, pH = 5) containing substrate (varying concentration from Km/8 to 2Km value) in presence or absence of various concentrations of inhibitor. After 40–50 min incubation, the reaction was quenched by addition of 1M Na2CO3 (100 µL). The absorbance of the resulting solution was determined at 405 nm. Ki values were determined in duplicate or triplicate, using the Dixon and Lineweaver–Burk graphical methods with Microsoft Excel 97-03, or using non-linear regression with GraphPad Prism 7 Software. […]
General procedure for inhibition assay measured continuously: The release of p-nitrophenol was measured continuously at 385 nm to determine initial velocities. […] Ki values were determined in duplicate or quadruplate, using the Dixon graphical method. […]

## CC(C)(C)c1cc2c(OCc3cn(CCCCCCN4C[C@H](O)[C@@H](O)[C@H](O)[C@H]4CO)nn3)c(c1)Cc1cc(C(C)(C)C)cc(c1OCc1cn(CCCCCCN3C[C@H](O)[C@@H](O)[C@H](O)[C@H]3CO)nn1)Cc1cc(C(C)(C)C)cc(c1OCc1cn(CCCCCCN3C[C@H](O)[C@@H](O)[C@H](O)[C@H]3CO)nn1)Cc1cc(C(C)(C)C)cc(c1OCc1cn(CCCCCCN3C[C@H](O)[C@@H](O)[C@H](O)[C@H]3CO)nn1)Cc1cc(C(C)(C)C)cc(c1OCc1cn(CCCCCCN3C[C@H](O)[C@@H](O)[C@H](O)[C@H]3CO)nn1)Cc1cc(C(C)(C)C)cc(c1OCc1cn(CCCCCCN3C[C@H](O)[C@@H](O)[C@H](O)[C@H]3CO)nn1)Cc1cc(C(C)(C)C)cc(c1OCc1cn(CCCCCCN3C[C@H](O)[C@@H](O)[C@H](O)[C@H]3CO)nn1)Cc1cc(C(C)(C)C)cc(c1OCc1cn(CCCCCCN3C[C@H](O)[C@@H](O)[C@H](O)[C@H]3CO)nn1)C2
  rp/n (relative inhibition potency per DNJ unit): < 1 and 0.5
